# According to patent publication US12409172B2, “Dosage regimen” (UNION therapeutics A/S, priority 2023, dated 2025):
# Experiment: Phase 2b study in psoriasis (Example 3): cardiovascular risk factors, mean change from baseline at Week 16
# Format: in vivo, human
compound,measurement,setting,value
"O=C(Cc1c(Cl)c[n+]([O-])cc1Cl)c1ccc(OC(F)F)c2c1OC1(CCS(=O)(=O)CC1)O2 [orismilast, 2-(3,5-dichloro-1-oxidopyridin-1-ium-4-yl)-1-[7-(difluoromethoxy)-1′,1′-dioxospiro[1,3-benzodioxole-2,4′-thiane]-4-yl]ethanone]","BMI, mean change from baseline Week 16",20 mg BID,−0.9 kg/m^2
same,"C Reactive Protein, mean change from baseline Week 16",20 mg BID,3.4 mmol/L
same,"Cholesterol, mean change from baseline Week 16",20 mg BID,-0.2 mmol/L
same,"Diastolic blood pressure, mean change from baseline Week 16",20 mg BID,−1.6 mmHg
same,"Fasting serum glucose, mean change from baseline Week 16",20 mg BID,-0.2 mmol/L
same,"HDL cholesterol, mean change from baseline Week 16",20 mg BID,0.0 mmol/L
same,"Hip circumference, mean change from baseline Week 16",20 mg BID,−0.9 cm
same,"LDL cholesterol, mean change from baseline Week 16",20 mg BID,-0.1 mmol/L
same,"Systolic blood pressure, mean change from baseline Week 16",20 mg BID,−1.1 mmHg
same,"Triglycerides, mean change from baseline Week 16",20 mg BID,-0.2 mmol/L
same,"Waist circumference, mean change from baseline Week 16",20 mg BID,−3.1 cm
same,"Weight, mean change from baseline Week 16",20 mg BID,-2.6 kg
same,"BMI, mean change from baseline Week 16",30 mg BID,−0.9 kg/m^2
same,"C Reactive Protein, mean change from baseline Week 16",30 mg BID,-33.1 mmol/L
same,"Cholesterol, mean change from baseline Week 16",30 mg BID,0.0 mmol/L
same,"Diastolic blood pressure, mean change from baseline Week 16",30 mg BID,1.3 mmHg
same,"Fasting serum glucose, mean change from baseline Week 16",30 mg BID,-0.2 mmol/L
same,"HDL cholesterol, mean change from baseline Week 16",30 mg BID,0.0 mmol/L
same,"Hip circumference, mean change from baseline Week 16",30 mg BID,−2.8 cm
same,"LDL cholesterol, mean change from baseline Week 16",30 mg BID,0.0 mmol/L
same,"Systolic blood pressure, mean change from baseline Week 16",30 mg BID,2.1 mmHg
same,"Triglycerides, mean change from baseline Week 16",30 mg BID,-0.1 mmol/L
same,"Waist circumference, mean change from baseline Week 16",30 mg BID,−1.0 cm
same,"Weight, mean change from baseline Week 16",30 mg BID,-2.8 kg
same,"BMI, mean change from baseline Week 16",40 mg BID,−1.0 kg/m^2
same,"C Reactive Protein, mean change from baseline Week 16",40 mg BID,-27.2 mmol/L
same,"Cholesterol, mean change from baseline Week 16",40 mg BID,-0.1 mmol/L
same,"Diastolic blood pressure, mean change from baseline Week 16",40 mg BID,1.0 mmHg
same,"Fasting serum glucose, mean change from baseline Week 16",40 mg BID,-0.1 mmol/L
same,"HDL cholesterol, mean change from baseline Week 16",40 mg BID,0.0 mmol/L
same,"Hip circumference, mean change from baseline Week 16",40 mg BID,−3.4 cm
same,"LDL cholesterol, mean change from baseline Week 16",40 mg BID,-0.2 mmol/L
same,"Systolic blood pressure, mean change from baseline Week 16",40 mg BID,1.5 mmHg
same,"Triglycerides, mean change from baseline Week 16",40 mg BID,0.2 mmol/L
same,"Waist circumference, mean change from baseline Week 16",40 mg BID,−1.9 cm
same,"Weight, mean change from baseline Week 16",40 mg BID,-3.1 kg
